Results reported in doi:10.1101/2025.07.15.664932.
These are yes or no findings as the source states them, for the method shown. In cells and extracts the contact can be indirect. These calls come from enrichment with a bait or labelling near it, and not all partners need be listed. Where a sequence is shown, tags or fusion partners need not be part of it.

T1: Gid1-HA (S. cerevisiae) (UniProt P53076)
T1 sequence: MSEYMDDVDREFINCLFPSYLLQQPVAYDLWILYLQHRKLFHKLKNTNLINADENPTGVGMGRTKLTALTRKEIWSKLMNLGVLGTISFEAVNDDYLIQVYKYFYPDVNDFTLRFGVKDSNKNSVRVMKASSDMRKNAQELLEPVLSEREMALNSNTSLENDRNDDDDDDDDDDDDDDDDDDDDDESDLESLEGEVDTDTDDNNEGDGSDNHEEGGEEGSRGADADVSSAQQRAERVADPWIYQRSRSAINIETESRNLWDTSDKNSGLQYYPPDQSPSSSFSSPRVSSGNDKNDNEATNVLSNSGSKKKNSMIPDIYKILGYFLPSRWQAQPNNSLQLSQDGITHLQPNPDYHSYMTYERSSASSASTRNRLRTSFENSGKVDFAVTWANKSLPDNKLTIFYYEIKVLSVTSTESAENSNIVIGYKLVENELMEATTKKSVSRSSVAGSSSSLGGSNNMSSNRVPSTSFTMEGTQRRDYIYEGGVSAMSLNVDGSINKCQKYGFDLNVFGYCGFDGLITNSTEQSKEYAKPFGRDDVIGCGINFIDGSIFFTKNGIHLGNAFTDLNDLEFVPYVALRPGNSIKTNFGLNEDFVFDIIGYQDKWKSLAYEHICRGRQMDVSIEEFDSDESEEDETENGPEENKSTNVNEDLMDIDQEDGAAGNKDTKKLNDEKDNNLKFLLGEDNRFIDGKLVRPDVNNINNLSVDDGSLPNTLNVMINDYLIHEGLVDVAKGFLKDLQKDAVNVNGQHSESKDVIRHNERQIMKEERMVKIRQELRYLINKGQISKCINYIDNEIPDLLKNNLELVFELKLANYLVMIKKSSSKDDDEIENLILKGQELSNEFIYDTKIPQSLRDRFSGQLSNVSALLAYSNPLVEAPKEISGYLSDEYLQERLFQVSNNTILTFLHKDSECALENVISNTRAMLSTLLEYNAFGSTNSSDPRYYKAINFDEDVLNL

B1: Gid8 (protein, UniProt P40208 1-455)
chain: MTISTLSNETTKSGSCSGQGKNGGKDFTYGKKCFTKEEWKEQVAKYSAMGELYANKTIHYPLKIQPNSSGGSQDEGFATIQTTPIEPTLPRLLLNYFVSMAYEDSSIRMAKELGFIRNNKDIAVFNDLYKIKERFHIKHLIKLGRINEAMEEINSIFGLEVLEETFNATGSYTGRTDRQQQQQQQQFDIDGDLHFKLLLLNLIEMIRSHHQQENITKDSNDFILNLIQYSQNKLAIKASSSVKKMQELELAMTLLLFPLSDSADSGSIKLPKSLQNLYSISLRSKIADLVNEKLLKFIHPRIQFEISNNNSKFPDLLNSDKKIITQNFTVYNNNLVNGSNGTKITHISSDQPINEKMSSNEVTAAANSVWLNQRDGNVGTGSAATTFHNLENKNYWNQTSELLSSSNGKEKGLEFNNYYSSEFPYEPRLTQIMKLWCWCENQLHHNQIGVPRVEN
B2: Gid7 (protein, UniProt P25569 1-745)
chain: MSHTNKIAYVLNNDTEETASPSSVGCFDKKQLTKLLIHTLKELGYDSAANQLLLESGGYQNESNHIQTFFKLIKTGQFHLINWQIVCSLPLAHSSPLRSEWLQRLLIPTPTPATTSLFDHMLLQLQYLQQLMSSVNSSTCSDAEIATLRNYVEIMILVNRQIFLEFFHPVTNSASHKGPHTALPVLYLRKILKNFIEIWDSLLVSNDQFLNEENIFNPETTLRELSTYLTNPKLTAQLNLERDHLIDAISKYIDPNELVPKGRLLHLLKQAIKYQQSQDIFNIIDPDDDASFSSPPHRINLLQDNFSHDLTVTFQEWKTIQDTTDEIWFLTFSPNGKYLASATSESSRGYFITVYDVEQDFKIYKTCVSLSQSVLYLMFSPDSRYLVACPFSEDVTIYDMNATSLPDASATDSFLLYPSTRLSPMDSFKLDTTTYPDDTESSASSSSRPANANSNQSRVWCCDAFHTAERAGWMVVGSPDREAIVHSLTTKESLFSLKGRTCIALGHDENISGRKSIDPAKVLYKPTSSNGNWQYVEDDETFPRVHDVKISYDDKYVLLMTHQGVIDVYDFSGFPSKEELSKQTVDPKNFLIPRIARLDVGKNMTCISLPLNTTHQGFHRQQISESQHLVLVSLQDNELQMWDYKENILIQKYFGQKQQHFIIRSCFAYGNKLVMSGSEDGKIYIWDRIRGNLVSVLSGHSTVMSNSTKPMGKNCNVVASNPADKEMFASGGDDGKIKIWKISRN
B3: Gid5 (protein, UniProt P40547 1-921)
chain: MTVAYSLENLKKISNSLVGDQLAKVDYFLAPKCQIFQCLLSIEQSDGVELKNAKLDLLYTLLHLEPQQRDIVGTYYFDIVSAIYKSMSLASSFTKNNSSTNYKYIKLLNLCAGVYPNCGFPDLQYLQNGFIQLVNHKFLRSKCKIDEVVTIIELLKLFLLVDEKNCSDFNKSKFMEEEREVTETSHYQDFKMAESLEHIIVKISSKYLDQISLKYIVRLKVSRPASPSSVKNDPFDNKGVDCTRAIPKKINISNMYDSSLLSLALLLYLRYHYMIPGDRKLRNDATFKMFVLGLLKSNDVNIRCVALKFLLQPYFTEDKKWEDTRTLEKILPYLVKSFNYDPLPWWFDPFDMLDSLIVLYNEITPMNNPVLTTLAHTNVIFCILSRFAQCLSLPQHNEATLKTTTKFIKICASFAASDEKYRLLLLNDTLLLNHLEYGLESHITLIQDFISLKDEIKETTTESHSMCLPPIYDHDFVAAWLLLLKSFSRSVSALRTTLKRNKIAQLLLQILSKTYTLTKECYFAGQDFMKPEIMIMGITLGSICNFVVEFSNLQSFMLRNGIIDIIEKMLTDPLFNSKKAWDDNEDERRIALQGIPVHEVKANSLWVLRHLMYNCQNEEKFQLLAKIPMNLILDFINDPCWAVQAQCFQLLRNLTCNSRKIVNILLEKFKDVEYKIDPQTGNKISIGSTYLFEFLAKKMRLLNPLDTQQKKAMEGILYIIVNLAAVNENKKQLVIEQDEILNIMSEILVETTTDSSSNGNDSNLKLACLWVLNNLLWNSSVSHYTQYAIENGLEPGHSPSDSENPQSTVTIGYNESVAGGYSRGKYYDEPDGDDSSSNANDDEDDDNDEGDDEGDEFVRTPAAKGSTSNVQVTRATVERCRKLVEVGLYDLVRKNITDESLSVREKARTLLYHMDLLLKVK
B4: Gid2 (protein, UniProt Q12508 1-421)
chain: MSELLDSFETEFAKFYTDSNLEETNLQKCLDHTHEFKSQLKKLKAHLNKHIQESKPEVYNKLSDKEKQKFKRKRELIIEKLSKSQRQWDHSVKKQIKYVSQQSNRFNKSTLNKLKEFDIDSVYVNKLPKETMENVNEAIGYHILRYSIDNMPLGNKNEAFQYLKDVYGITNKESTEFIEMGQIVHDLKKGDTESCLKWCSNEMESLSSNHTALSSLKFDLYTLSAMQIVKHGNPVELYYQITQNAPLDCFRHREKELMQNVVPLLTKSLIGQPIEDIDSKVNKELKECTSLFIKEYCAAKHIFFDSPLFLIVLSGLISFQFFIKYKTIRELAHVDWTTKDELPFDVKLPDFLTHFHPIFICPVLKEETTTENPPYSLACHHIISKKALDRLSKNGTITFKCPYCPVNTSMSSTKKVRFVML
B5: Gid9 (protein, UniProt P40492 1-516)
chain: MAEKSIFNEPDVDFHLKLNQQLFHIPYELLSKRIKHTQAVINKETKSLHEHTAALNQIFEHNDVEHDELALAKITEMIRKVDHIERFLNTQIKSYCQILNRIKKRLEFFHELKDIKSQNSGTSHNGNNEGTRTKLIQWYQSYTNILIGDYLTRNNPIKYNSETKDHWNSGVVFLKQSQLDDLIDYDVLLEANRISTSLLHERNLLPLISWINENKKTLTKKSSILEFQARLQEYIELLKVDNYTDAIVCFQRFLLPFVKSNFTDLKLASGLLIFIKYCNDQKPTSSTSSGFDTEEIKSQSLPMKKDRIFQHFFHKSLPRITSKPAVNTTDYDKSSLINLQSGDFERYLNLLDDQRWSVLNDLFLSDFYSMYGISQNDPLLIYLSLGISSLKTRDCLHPSDDENGNQETETATTAEKEVEDLQLFTLHSLKRKNCPVCSETFKPITQALPFAHHIQSQLFENPILLPNGNVYDSKKLKKLAKTLKKQNLISLNPGQIMDPVDMKIFCESDSIKMYPT

Each binder was assayed against T1, Gid1-HA (S. cerevisiae) (assay: affinity purification with mass spectrometry).
B1 was tested, and the binding was “binds”.
B2 was tested, and the binding was “binds”.
With B3 the binding was “binds”.
In the case of B4, the binding is reported as “binds”.
B5 was tested, and the binding was “binds”.
